Experiment: peptide synthesis
Conditions: late stage modification step, trifluoroacetate

## N^2.1-[1-Methyl-3-oxobut-1-en-1-yl]-N^7.ω,N^7.ω′-(pent[2]en[2]yl[4]ylidene)lysobactin
  step yield: 54% of th.
